The target in test [1] is native human β2M on primary cells (human PBMC; cells of hFcRn and hβ2M transgenic mice) (human) (UniProt P61769). As to the kind of experiment: flow cytometry, loss of anti-β2M staining after preincubation with AFP. Background: Flow cytometry measures light scatter and fluorescence of single cells or particles in a stream.
The target of test [2] is human β2-microglobulin (human) (UniProt P61769). Description: SPR, 100 RU hβ2M amine-coupled, hAFP injected at 2000-15.6 nM, pH 6.

Chains of the proteins cited; added tags and fusions are not shown. Lines headed by an entry give the natural chain unless they say otherwise; changes in a name come on top.
UniProt P61769: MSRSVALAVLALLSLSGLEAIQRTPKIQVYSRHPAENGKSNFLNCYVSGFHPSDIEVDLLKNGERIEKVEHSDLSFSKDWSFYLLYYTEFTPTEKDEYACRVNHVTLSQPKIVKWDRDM

Results are given in words; binding and its absence hold for the method and conditions named. Some binding calls cover weakened binding; strength is not graded here.

B1: human alpha-fetoprotein (AFP) (ligand)
chain: RTLHRNEYGIASILDSYQCTAEISLADLATIFFAQFVQEATYKEVSKMVKDALTAIEKPTGDEQSSGCLENQLPAFLEELCHEKEILEKYGHSDCCSQSEEGRHNCFLAHKKPTPASIPLFQVPEPVTSCEAYEEDRETFMNKFIYEIARRHPFLYAPTILLWAARYDKIIPSCCKAENAVECFQTKAATVTKELRESSLLNQHACAVMKNFGTRTFQAITVTKLSQKFTKVNFTEIQKLVLDVAHVHEHCCRGDVLDCLQDGEKIMSYICSQQDTLSNKITECCKLTTLERGQCIIHAENDEKPEGLSPNLNRFLGDRDFNQFSSGEKNIFLASFVHEYSRRHPQLAVSVILRVAKGYQELLEKCFQTENPLECQDKGEEELQKYIQESQALAKRSCGLFQKLGEYYLQNAFLVAYTKKAPQLTSSELMAITRKMAATAATCCQLSEDKLLACGEGAADIIIGHLCIRHEMTPVNPGVGQCCTSSYANRRPCFSSLVVDETYVPPAFSDDKFIFHKDLCQAQGVALQTMKQEFLINLVKQKPQITEEQLEAVIADFSGLLEKCCQGQEQEVCFAEEGQKLISKTRAALGV
B1: the binding result in test [1] and in test [2] was “binds” in each case.

(Values after US20190201496A1.)
